The effect of the compound repeats well; differences between the knockouts mostly do not.
Columns and labels:
Test in all cases: relative cell number vs DMSO control (72 h) (% of DMSO); higher = less growth inhibition (more cells)
MDA-MB-231 = tested on: MDA-MB-231
Experimental: (§1)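 QMAP-Seq: a pool of 5 breast cancer cell lines (ZR-75-1, SKBR3, HCC-38, MDA-MB-231, BT-20), each carrying 12 doxycycline-inducible Cas9 sgRNA perturbations (11 knockouts plus non-targeting sgNT), was treated with compounds for 72 h at four 10-fold doses (10 nM-10 uM or 1 nM-1 uM range). Barcodes were amplified and sequenced, and cell number was interpolated from 293T spike-in standard curves. The result is expressed as % of the median of DMSO wells. Two biological replicates.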

ZR-75-1 = tested on: ZR-75-1
Experimental: as §1

SKBR3 = tested on: SKBR3
Experimental: as §1

Cn1cnc2c(F)c(Nc3ccc(Br)cc3Cl)c(C(=O)NOCCO)cc21 [Selumetinib]
relative cell number
Conditions	MDA-MB-231	SKBR3	ZR-75-1
sgRNA knockout: sgATF3, 10 nM	107	89.9	73.4
sgRNA knockout: sgATF3, 100 nM	75.9	84.4	58.7
sgRNA knockout: sgATF3, 1000 nM	82	91.1	87.6
sgRNA knockout: sgATF3, 10000 nM	55.4	88.2	72.9
sgRNA knockout: sgATF4, 10 nM	117	104	94.1
sgRNA knockout: sgATF4, 100 nM	69.6	85.1	61.43
sgRNA knockout: sgATF4, 1000 nM	70.8	91.2	93.1
sgRNA knockout: sgATF4, 10000 nM	42.9	76.3	78
sgRNA knockout: sgATF6, 10 nM	111	93.8	88.9
sgRNA knockout: sgATF6, 100 nM	103	81	50.6
sgRNA knockout: sgATF6, 1000 nM	82.7	105	72.3
sgRNA knockout: sgATF6, 10000 nM	50	81.7	63.5
sgRNA knockout: sgATG7, 10 nM	97.5	95.8	101
sgRNA knockout: sgATG7, 100 nM	103	98.88	86.1
sgRNA knockout: sgATG7, 1000 nM	87.3	99.8	75.7
sgRNA knockout: sgATG7, 10000 nM	55.5	90.89	71.8
sgRNA knockout: sgERN1, 10 nM	91.1	100	80.2
sgRNA knockout: sgERN1, 100 nM	77.7	81.4	52.24
sgRNA knockout: sgERN1, 1000 nM	61.4	94.3	94.1
sgRNA knockout: sgERN1, 10000 nM	46.4	83.46	87.2
sgRNA knockout: sgHSF1, 10 nM	117	110	–
sgRNA knockout: sgHSF1, 100 nM	77.9	80.9	–
sgRNA knockout: sgHSF1, 1000 nM	72.8	92.3	–
sgRNA knockout: sgHSF1, 10000 nM	66	76.3	–
sgRNA knockout: sgHSF2, 10 nM	83.1	85.9	91
sgRNA knockout: sgHSF2, 100 nM	80.9	80.5	92.5
sgRNA knockout: sgHSF2, 1000 nM	79.1	97.5	83.7
sgRNA knockout: sgHSF2, 10000 nM	51.4	68.8	70.7
sgRNA knockout: sgKEAP1, 10 nM	98.8	87.9	–
sgRNA knockout: sgKEAP1, 100 nM	85.44	97.2	–
sgRNA knockout: sgKEAP1, 1000 nM	91.4	99.2	–
sgRNA knockout: sgKEAP1, 10000 nM	58.2	65.5	–
sgRNA knockout: sgNFE2L2, 10 nM	94.2	89.4	106
sgRNA knockout: sgNFE2L2, 100 nM	103	93.6	90.1
sgRNA knockout: sgNFE2L2, 1000 nM	86.4	111	108
sgRNA knockout: sgNFE2L2, 10000 nM	37.7	93.9	68.3
sgRNA knockout: sgSLC35F2, 10 nM	102	71	80.2
sgRNA knockout: sgSLC35F2, 100 nM	80.3	84.3	80.7
sgRNA knockout: sgSLC35F2, 1000 nM	96.1	85	54.7
sgRNA knockout: sgSLC35F2, 10000 nM	70.9	73.2	52.8
sgRNA knockout: sgXBP1, 10 nM	99.2	101	99.7
sgRNA knockout: sgXBP1, 100 nM	81.4	107	76.3
sgRNA knockout: sgXBP1, 1000 nM	68.7	103	86.9
sgRNA knockout: sgXBP1, 10000 nM	49.43	70	69.8

COc1cc(/C=C/C(=O)CC(=O)/C=C/c2ccc(O)c(OC)c2)ccc1O [Curcumin]
relative cell number
Conditions	MDA-MB-231	SKBR3	ZR-75-1
sgRNA knockout: sgATF3, 10 nM	127	135	100
sgRNA knockout: sgATF3, 100 nM	94.66	103	95.1
sgRNA knockout: sgATF3, 1000 nM	101	86.5	79.8
sgRNA knockout: sgATF3, 10000 nM	80.8	98.8	88.58
sgRNA knockout: sgATF4, 10 nM	107	107	125
sgRNA knockout: sgATF4, 100 nM	132	111	124
sgRNA knockout: sgATF4, 1000 nM	107.1	95.5	127
sgRNA knockout: sgATF4, 10000 nM	84.4	76.4	121
sgRNA knockout: sgATF6, 10 nM	102	108	134
sgRNA knockout: sgATF6, 100 nM	91.64	108	147
sgRNA knockout: sgATF6, 1000 nM	97.2	95.9	88.9
sgRNA knockout: sgATF6, 10000 nM	74.4	74.4	103
sgRNA knockout: sgATG7, 10 nM	105.7	109	97.9
sgRNA knockout: sgATG7, 100 nM	125	96.6	115
sgRNA knockout: sgATG7, 1000 nM	88.8	106	123
sgRNA knockout: sgATG7, 10000 nM	84.511	72.3	79.6
sgRNA knockout: sgERN1, 10 nM	98.49	94.2	86.4
sgRNA knockout: sgERN1, 100 nM	110	107.59	113
sgRNA knockout: sgERN1, 1000 nM	90.1	119	116
sgRNA knockout: sgERN1, 10000 nM	87.3	91.4	103
sgRNA knockout: sgHSF1, 10 nM	103.78	102	–
sgRNA knockout: sgHSF1, 100 nM	114	95	–
sgRNA knockout: sgHSF1, 1000 nM	83.6	102	–
sgRNA knockout: sgHSF1, 10000 nM	89.8	77.3	–
sgRNA knockout: sgHSF2, 10 nM	110	114	108
sgRNA knockout: sgHSF2, 100 nM	115	105	98.6
sgRNA knockout: sgHSF2, 1000 nM	99.3	96.2	110
sgRNA knockout: sgHSF2, 10000 nM	85.1	74.5	76.4
sgRNA knockout: sgKEAP1, 10 nM	104	105	–
sgRNA knockout: sgKEAP1, 100 nM	110	115	–
sgRNA knockout: sgKEAP1, 1000 nM	112	95.9	–
sgRNA knockout: sgKEAP1, 10000 nM	74.8	70.5	–
sgRNA knockout: sgNFE2L2, 10 nM	94.1	99.9	90.7
sgRNA knockout: sgNFE2L2, 100 nM	118	104	90
sgRNA knockout: sgNFE2L2, 1000 nM	88.27	99.6	107
sgRNA knockout: sgNFE2L2, 10000 nM	94.2	88	75.3
sgRNA knockout: sgSLC35F2, 10 nM	123	97.8	92.2
sgRNA knockout: sgSLC35F2, 100 nM	113	94.5	97.6
sgRNA knockout: sgSLC35F2, 1000 nM	93.9	103	96.1
sgRNA knockout: sgSLC35F2, 10000 nM	78.4	81.4	113
sgRNA knockout: sgXBP1, 10 nM	84.6	126	87.1
sgRNA knockout: sgXBP1, 100 nM	107	118	108
sgRNA knockout: sgXBP1, 1000 nM	80	79.7	106
sgRNA knockout: sgXBP1, 10000 nM	77.4	87.5	81

CN(C)C(=O)c1ccc(S(=O)(=O)c2ccc(NC(=O)[C@@](C)(O)C(F)(F)F)c(Cl)c2)cc1 [AZD7545]
relative cell number
Conditions	MDA-MB-231	SKBR3	ZR-75-1
sgRNA knockout: sgATF3, 10 nM	91.8	107	121
sgRNA knockout: sgATF3, 100 nM	125	103.6	79.7
sgRNA knockout: sgATF3, 1000 nM	84.7	84.8	85.6
sgRNA knockout: sgATF3, 10000 nM	90	91	44.5
sgRNA knockout: sgATF4, 10 nM	114	120	112
sgRNA knockout: sgATF4, 100 nM	95.7	89.2	117
sgRNA knockout: sgATF4, 1000 nM	72.3	92.1	90
sgRNA knockout: sgATF4, 10000 nM	120	81.4	32.7
sgRNA knockout: sgATF6, 10 nM	96.7	94.8	75.2
sgRNA knockout: sgATF6, 100 nM	88	98.2	97.1
sgRNA knockout: sgATF6, 1000 nM	114	105	88.1
sgRNA knockout: sgATF6, 10000 nM	89.4	67.9	21.1
sgRNA knockout: sgATG7, 10 nM	103	101	110
sgRNA knockout: sgATG7, 100 nM	96.2	96.2	106
sgRNA knockout: sgATG7, 1000 nM	87.9	101	136
sgRNA knockout: sgATG7, 10000 nM	87	83.9	47.9
sgRNA knockout: sgERN1, 10 nM	82	104	118
sgRNA knockout: sgERN1, 100 nM	113	112	104
sgRNA knockout: sgERN1, 1000 nM	79.3	98.6	116
sgRNA knockout: sgERN1, 10000 nM	79.7	90.6	51.1
sgRNA knockout: sgHSF1, 10 nM	107	97.29	–
sgRNA knockout: sgHSF1, 100 nM	99.6	80.9	–
sgRNA knockout: sgHSF1, 1000 nM	91	91.3	–
sgRNA knockout: sgHSF1, 10000 nM	85.3	73	–
sgRNA knockout: sgHSF2, 10 nM	96.4	107	120
sgRNA knockout: sgHSF2, 100 nM	107	84.9	89.3
sgRNA knockout: sgHSF2, 1000 nM	99.7	96.1	118
sgRNA knockout: sgHSF2, 10000 nM	89.1	80.6	48.8
sgRNA knockout: sgKEAP1, 10 nM	102	91.1	–
sgRNA knockout: sgKEAP1, 100 nM	83.6	91.1	–
sgRNA knockout: sgKEAP1, 1000 nM	101	83.3	–
sgRNA knockout: sgKEAP1, 10000 nM	76.6	81.4	–
sgRNA knockout: sgNFE2L2, 10 nM	109	98.6	99.9
sgRNA knockout: sgNFE2L2, 100 nM	98.9	87.3	105
sgRNA knockout: sgNFE2L2, 1000 nM	74.28	89.8	93
sgRNA knockout: sgNFE2L2, 10000 nM	93	65.7	50.5
sgRNA knockout: sgSLC35F2, 10 nM	112	97.1	130
sgRNA knockout: sgSLC35F2, 100 nM	103	99.2	112
sgRNA knockout: sgSLC35F2, 1000 nM	91.3	88.7	135
sgRNA knockout: sgSLC35F2, 10000 nM	87.4	74	39.3
sgRNA knockout: sgXBP1, 10 nM	96.3	109	87.6
sgRNA knockout: sgXBP1, 100 nM	99.7	92.7	83.7
sgRNA knockout: sgXBP1, 1000 nM	107	98.2	95.99
sgRNA knockout: sgXBP1, 10000 nM	101	83.3	46.7
